Experimental data from article PMC9220848.
No constants are given. Whether binding was seen depends on the method and setting. In cells and extracts the contact can be indirect. Some entries that bind do so weakly or less than the wild type.

Amino acid sequences for entries named in this document (tags omitted).
UniProt Q16637: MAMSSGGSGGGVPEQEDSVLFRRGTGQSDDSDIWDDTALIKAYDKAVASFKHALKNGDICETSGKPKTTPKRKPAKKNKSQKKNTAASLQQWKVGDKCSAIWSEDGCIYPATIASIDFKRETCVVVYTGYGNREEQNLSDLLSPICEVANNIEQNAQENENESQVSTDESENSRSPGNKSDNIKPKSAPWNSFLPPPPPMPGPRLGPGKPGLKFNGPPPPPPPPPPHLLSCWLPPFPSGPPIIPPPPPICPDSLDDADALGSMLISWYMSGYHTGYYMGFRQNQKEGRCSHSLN
UniProt P97801: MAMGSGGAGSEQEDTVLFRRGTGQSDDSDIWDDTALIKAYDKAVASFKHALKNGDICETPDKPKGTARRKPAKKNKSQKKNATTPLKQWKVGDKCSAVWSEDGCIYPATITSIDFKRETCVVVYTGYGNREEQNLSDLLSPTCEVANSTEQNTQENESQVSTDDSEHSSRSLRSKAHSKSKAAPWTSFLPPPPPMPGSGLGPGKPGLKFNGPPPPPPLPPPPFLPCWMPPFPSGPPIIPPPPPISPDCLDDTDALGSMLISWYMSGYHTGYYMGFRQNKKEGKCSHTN

Legend:
[1] = molecular target: intact Bap1 (N-terminal flag-tagged full-length construct) (not stated (human or mouse cDNA cloned)) (UniProt Q92560); experiment: co-IP; semi-endogenous co-immunoprecipitation from lysates of HEK293T cells transfected with intact or truncated Bap1; IP buffer 150 mM NaCl, 50 mM Tris, 0.5% Nonidet P-40; overnight at 4°C; immunoblot
[2] = molecular target: T1, BRCA1-associated protein-1 (Bap1), endogenous in mouse FAPs (mouse (endogenous in FAPs)) (UniProt Q99PU7); experiment: co-IP; endogenous reciprocal immunoprecipitation from lysates of freshly isolated mouse FAPs with pre-immune IgG, anti-Bap1 or anti-SMN antibodies; IP buffer 150 mM NaCl, 50 mM Tris, 0.5% Nonidet P-40; overnight at 4°C; immunoblot
T1 sequence: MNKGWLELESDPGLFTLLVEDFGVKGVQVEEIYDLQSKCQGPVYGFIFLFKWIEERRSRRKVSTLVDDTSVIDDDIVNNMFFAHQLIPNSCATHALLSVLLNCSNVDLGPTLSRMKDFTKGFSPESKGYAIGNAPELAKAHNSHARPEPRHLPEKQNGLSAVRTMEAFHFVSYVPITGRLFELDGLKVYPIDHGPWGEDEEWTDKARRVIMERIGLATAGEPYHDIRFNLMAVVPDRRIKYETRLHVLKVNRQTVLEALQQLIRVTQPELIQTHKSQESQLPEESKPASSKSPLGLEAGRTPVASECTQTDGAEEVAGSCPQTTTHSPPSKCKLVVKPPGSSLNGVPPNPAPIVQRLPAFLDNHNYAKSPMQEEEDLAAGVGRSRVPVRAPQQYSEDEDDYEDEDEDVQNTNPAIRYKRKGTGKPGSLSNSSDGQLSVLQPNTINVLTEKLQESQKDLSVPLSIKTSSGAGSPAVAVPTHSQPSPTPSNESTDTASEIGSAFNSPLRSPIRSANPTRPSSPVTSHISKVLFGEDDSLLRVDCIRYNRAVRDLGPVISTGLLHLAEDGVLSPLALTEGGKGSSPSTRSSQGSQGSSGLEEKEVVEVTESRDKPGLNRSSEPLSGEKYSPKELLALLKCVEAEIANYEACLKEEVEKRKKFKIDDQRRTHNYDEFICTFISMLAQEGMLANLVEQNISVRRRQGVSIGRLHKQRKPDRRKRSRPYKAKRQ

| Substance | binding [1] | binding [2] |
| --- | --- | --- |
| survival of motor neuron (SMN) protein, endogenous in HEK293T cells (from UniProt Q16637 1-294) | binds | – |
| survival of motor neuron (SMN) protein, endogenous in mouse FAPs (from UniProt P97801 1-288) | – | binds |
